Experimental data from PubChem BioAssay AID1347423 (Functional Genomics Laboratory (NCATS/FGL), 2020).
Hit rate of the full screen: of about 52,000 sequences, about 210 (0.4%) were called active.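 How the source made its calls: active means gene whose silencing raises cell survival under the drug, median off-target-corrected z-score across its silencing RNAs 2 or more; inactive means the rest.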 This is one part of the list.

Experiment: Resistance to Poly (ADP-Ribose) Polymerase inhibitor: Gene Identification via Genome-wide siRNA Screen
Conditions: mouse BRCA2 R2336H ES cells, olaparib, CellTiter-Glo viability; active compounds read high
Summary of the method: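 Mouse BRCA2 R2336H ES cells were reverse-transfected with siRNA (20 nM final), treated at 48 h with 500 nM olaparib, and read by CellTiter-Glo after 72 h. Scores: MAD-based z per siRNA, median per gene, seed off-target correction.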

| Sequence | z-score |
| --- | --- |
| GCUCUUGAGCCUACAACUGTT against Pmfbp1 | inactive: -0.55 |
| GGUCAUGGAAGAAGCAAAGTT against 5730555F13Rik | inactive: 2.7 |
| GGUUUGAUGACAAAUACACTT against 5730406I15Rik | inactive: 0.884 |
| GGUCAAUGCUACUAAUGAATT against 4921520G13Rik | inactive: -0.197 |
| GGCUAAAAACUACCUCCUGTT against D930050H05Rik | inactive: 1.23 |
| GGCAAAGUGAUAUUUUCAATT against Slc6a12 | active: 1.85 |
| GGUAAAUGCAGAGGGAACATT against Ak5 | inactive: -0.291 |
| GCCCUGGCCACAUGUAGUUTT against Olfr98 | inactive: 0.371 |
| GGAUGUUUUCCAGUAUGAATT against Nox1 | inactive: 0.482 |
| GUAGUUAGGAACUCUUGCUTT against BC051244 | inactive: -0.535 |
| GGAAGGUUGUCUUACUUUUTT against Pkd2 | inactive: -0.438 |
| GGAGUUACGGGAUUCCGUUTT against Kras2 | inactive: -0.0682 |
| GAAGUCUGUGACCAGUUCCTT against A930011G24 | inactive: 0.445 |
| GGAAGCAGUACCUUCAUCGTT against 0610009K11Rik | inactive: 0.203 |
| GCGAACUGAUCAUCAACCGTT against Zfp566 | inactive: 1.37 |
| CCAAGUUCUUUAGUUAAAGTT against Fshb | inactive: -0.478 |
| GCUCGAUUGACCUCAUUCATT against Rhbdl6 | inactive: -2.57 |
| CGGAAGUUCCUCAUUGCAUTT against Ftcd | inactive: -0.611 |
| GGCAGUGAGAACCAAGUUUTT against Ccl24 | inactive: -1.87 |
| GGCUUUGGAAUCAUUCAUATT against BC028265 | inactive: -0.949 |
| GCUGGUGAGUCACUGAUGATT against Surf5 | inactive: 0.855 |
| GCUAUAUGGUUGAAGAUUUTT against Ptprj | inactive: 1.86 |
| CCUAAAAUACCUUUGUGAGTT against Nfkbie | inactive: -0.908 |
| GAUGGACAGAAAUCAGGAGTT against Centd2 | inactive: -1.52 |
| CGAGCAAUGGCAGAUGAGCTT against D17Wsu104e | inactive: 0.906 |
| GCAAAAUCUAGGGAUAAGATT against A630098A13Rik | inactive: -1.29 |

| Sequence | z-score |
| --- | --- |
| CCAAGGACUCUCAUCUGUUTT against 4933409D10Rik | inactive: 0.0662 |
| GCUUCAACAUCAGUUUGGGTT against Olfr1392 | inactive: 0.413 |
| GGUGUUUGCCAUGUUCGCATT against Avpr1a | inactive: 0.789 |
| GGAGAAGCUGUUUGUUCUGTT against Ftcd | inactive: 0.513 |
| CCUUUAUAACUGUGGUUGGTT against LOC432736 | inactive: -0.0187 |
| GUCUCAAAUUUAUCCUGAUTT against Mapbpip | inactive: -0.686 |
| GGUUAAAACGAGCAACGUGTT against 2310079F23Rik | inactive: 1.1 |
| CCUUUUUGAGGAAUUUGGATT against A630086M08Rik | inactive: -0.414 |
| GGAUAAAGUCUUCAGGUGGTT against Olfr1499 | inactive: -0.168 |
| GCUUGUGCGGGUGAUAGACTT against BC027073 | inactive: -1.7 |
| GGCGGACUGUUACUUCACCTT against H2-Ob | inactive: 0.179 |
| CCAACUCCUCUCUGGUUACTT against Olfr95 | inactive: 2.53 |
| GGUUUUUUGAUGUGGAUUGTT against Cyp4f14 | inactive: -0.255 |
| GGAUGUGCAAUAAUUUUCUTT against Fzd4 | inactive: 0.998 |
| GUAUCAUGACAGCUGUUUUTT against Olfr519 | inactive: 1.32 |
| GCUUCAAGUCAACUUAGUCTT against Hal | inactive: 1.73 |
| GCUUUGAGACUAGAUGUGGTT against A130066N16Rik | inactive: 0.871 |
| GGGACAAGUCAAAAACGAGTT against Cdc23 | inactive: -1.99 |
| CGCAUCAUAUUCUGAUUCCTT against 0610039K22Rik | inactive: 0.501 |
| GGGUGAGGAAUAUUAAUUCTT against Tuba6 | inactive: 0.54 |
| CAAUAGGACUCAUCCUGGUTT against Olfr670 | inactive: -0.829 |
| GGACCAGAAACAAAUUAAGTT against Neurod6 | inactive: 1.15 |
| CCAUUGGAUCCAUUCCUAUTT against Plcd3 | inactive: 2.27 |
| AUAGAGAAUACAACACUACTT against Olfr196 | inactive: -0.399 |
| GGCUUUGAGUAAACUGUUCTT against Olfr1014 | inactive: -0.334 |
| GCAGACAUGAACCGACUCATT against 2310003C23Rik | inactive: -0.281 |

| Sequence | z-score |
| --- | --- |
| GGGAAGAUGAGAUUGAAGCTT against Pcdh21 | inactive: -1.04 |
| GGAGUGUGUAUGGAAAAUATT against Tll1 | inactive: -1.39 |
| GGUCAGAUUCCUGAAAUUATT against Vbp1 | inactive: -0.208 |
| GGAUGAUAUUCUCAAGUUCTT against MGC117568 | inactive: 1.06 |
| GGGAAAGAGUACUAAGAAUTT against Olfr678 | inactive: 0.505 |
| GCUAGUCUACCCAAGUGACTT against 1700027J05Rik | inactive: -0.142 |
| GGAGUCCUCUAAUGUAAAUTT against Elovl4 | inactive: 0.0372 |
| GCAUAACAGAGUCAAUACATT against 2810013E07Rik | inactive: -0.0688 |
| GGAGGUGUGGCAUCUGGAUTT against Gsn | inactive: 0.655 |
| GGAUGCUGAUUUAAAGACUTT against Rai14 | inactive: -1.07 |
| GGGAUAUUCAGCAAACAUUTT against Xpo5 | inactive: 1.33 |
| GCUACAGAUUAGGGACAUATT against Pcdhb2 | inactive: 0.35 |
| CCAUCUCUUCGACAAUUAUTT against Chrne | inactive: -1.18 |
| GGGUGAUGUUCUUCCUGGATT against 2310032D16Rik | inactive: 0.0239 |
| GCCAACUUUGGACCAUUAUTT against BC087945 | inactive: -0.503 |
| CCAAAUUUAGCCAGGAUUATT against Ogn | inactive: 2.76 |
| GCAGACAUUGCACAAACCCTT against Ankrd10 | inactive: -2.03 |
| GCGCAUCGAAAAAUGGAUUTT against Rgl3 | inactive: -0.211 |
| CCACUUCCACCAAUGUAUATT against Igsf9 | inactive: 0.0784 |
| CCACAAGCUCUUUGUUUGCTT against Habp2 | inactive: 1.3 |
| CGAAACUCGUGAAUGAAAATT against Gtse1 | inactive: 0.538 |
| GGGCUUAUGUUUCCAGACCTT against LOC381813 | inactive: 0.288 |
| GGUUUUUAUUUAAAGCACGTT against Atp5a1 | inactive: -0.0394 |
| GCCUAUUACCUACACACAGTT against Rhof | inactive: -0.0393 |
| GCAGGUAUAAGAAGAGAAUTT against 1700128F08Rik | inactive: 0.056 |
| CCAUGGUUAUUAAUUAUGGTT against Slc24a4 | inactive: 0.997 |

A different layout for part of the listing above.
Sequence	z-score
CCAACUCCUCUCUGGUUACTT against Olfr95	inactive: 2.53
GGUUUUUUGAUGUGGAUUGTT against Cyp4f14	inactive: -0.255
GGAUGUGCAAUAAUUUUCUTT against Fzd4	inactive: 0.998
GUAUCAUGACAGCUGUUUUTT against Olfr519	inactive: 1.32
GCUUCAAGUCAACUUAGUCTT against Hal	inactive: 1.73
GCUUUGAGACUAGAUGUGGTT against A130066N16Rik	inactive: 0.871
GGGACAAGUCAAAAACGAGTT against Cdc23	inactive: -1.99
CGCAUCAUAUUCUGAUUCCTT against 0610039K22Rik	inactive: 0.501
GGGUGAGGAAUAUUAAUUCTT against Tuba6	inactive: 0.54
CAAUAGGACUCAUCCUGGUTT against Olfr670	inactive: -0.829
GGACCAGAAACAAAUUAAGTT against Neurod6	inactive: 1.15
CCAUUGGAUCCAUUCCUAUTT against Plcd3	inactive: 2.27
AUAGAGAAUACAACACUACTT against Olfr196	inactive: -0.399
GGCUUUGAGUAAACUGUUCTT against Olfr1014	inactive: -0.334
GCAGACAUGAACCGACUCATT against 2310003C23Rik	inactive: -0.281
GGGAAGAUGAGAUUGAAGCTT against Pcdh21	inactive: -1.04
GGAGUGUGUAUGGAAAAUATT against Tll1	inactive: -1.39
GGUCAGAUUCCUGAAAUUATT against Vbp1	inactive: -0.208
GGAUGAUAUUCUCAAGUUCTT against MGC117568	inactive: 1.06
GGGAAAGAGUACUAAGAAUTT against Olfr678	inactive: 0.505
GCUAGUCUACCCAAGUGACTT against 1700027J05Rik	inactive: -0.142
GGAGUCCUCUAAUGUAAAUTT against Elovl4	inactive: 0.0372
GCAUAACAGAGUCAAUACATT against 2810013E07Rik	inactive: -0.0688

Additional records

| Sequence | z-score |
| --- | --- |
| GGGAGGUGCAGCUGAUGAATT against Tesk1 | inactive: 1.84 |
| GGAGCAUUGCUCUUCUUCATT against 1110007L15Rik | inactive: 1.91 |
| GGCCUAUUCAGCGAAGAUGTT against Ppp5c | inactive: 0.104 |
| CCCAGACGAGGAUUUAUCCTT against Chd4 | inactive: -0.298 |
| GCAAAUCCACGCUAAAGCATT against Nxph1 | inactive: -0.154 |
| GGGAGGUACUCAAGGUUCATT against Tcfe3 | inactive: -0.858 |
| GGGAUAUGCAGAGAAUAGATT against 1700095F04Rik | inactive: 0.424 |
| GCAGAGGUCUUACAAUUUATT against Epb4.1l2 | inactive: -0.347 |
| GGCGAGCGACUGUGUAAAGTT against 6330503K22Rik | inactive: 0.72 |
| GGCUCAGAUCUGGGACACUTT against Rab11b | inactive: -1.87 |
| GGAUGAUUUGGCCAACACCTT against 0610007C21Rik | inactive: 1.19 |
| GGAGCACAGGCUCAGAAAATT against Ltb | inactive: 1.23 |
| CCAAUGGGCGUAAUCACUUTT against Obox3 | inactive: -1.29 |
| GGUGGAAGUGUAAAUAUCATT against Ptprd | inactive: 1.43 |
| GGAAGUUUCUGGAAACACATT against Mbd3 | inactive: -0.241 |
| GGUGGAAAAGUGAAAAAGGTT against Ddx18 | inactive: 1.06 |
| CGAGAUAGAGUCUGGAAUUTT against 1700092C17Rik | inactive: -0.353 |
| GAAGCUGAGUAUCUAUGGUTT against ORF18 | inactive: 0.241 |
| GGAAGAAAUGCAUAAUGCATT against Mesdc2 | inactive: 0.109 |
| GGUAUAUGUAACGUGUACUTT against Ercc4 | inactive: -0.141 |
| GGUCCAAGUCCGUCUACUATT against Acbd3 | inactive: -1.85 |
| GGAACACUCCAGUUUGAAUTT against Thsd1 | inactive: 0.915 |
| GGAAUUAGCUGAACAUUGUTT against Txndc8 | inactive: -1.6 |
| GGCUGUAGACAAAGAAUAUTT against Ecel1 | inactive: 0.569 |
| GGGAUUUUAGAAGCUAUGATT against A830018L16Rik | inactive: -1.93 |
| GCGAGAAUUGGACAAAUUATT against Cach | inactive: 0.292 |

Shown in CSV form: part of the list above
Sequence,z-score
GGCGAGCGACUGUGUAAAGTT against 6330503K22Rik,inactive: 0.72
GGAAGUUUCUGGAAACACATT against Mbd3,inactive: -0.241
